The list shows a part of the results.
Assays:
Assay in all cases: glycan array binding signal (z-score within array); higher = stronger binding
Details in all cases: glycan notation: IUPAC condensed, linker removed
Neu5Ac(a2-3)GalNAc = molecular target: Neu5Ac(a2-3)GalNAc
Method in brief: (§1)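 Negative Z-scores can be read as non-binding. The Z-score is calculated within each array and then averaged across arrays of one protein sequence at different concentrations or buffers and across linkers. Arrays, 3228 in all, were curated from the Consortium for Functional Glycomics database and kept only where the protein sequence was available.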

[1] = molecular target: Neu5Ac(a2-3)GalNAc(b1-4)GlcNAc
Method in brief: as §1

[2] = molecular target: Neu5Ac(a2-3)[GalNAc(b1-4)]Gal(b1-4)Glc
Method in brief: as §1

[3] = molecular target: Neu5Ac(a2-3)[GalNAc(b1-4)]Gal(b1-4)GlcNAc
Method in brief: as §1

[4] = molecular target: Neu5Ac(a2-3)[GalNAc(b1-4)]Gal(b1-4)GlcNAc(b1-3)GalNAc
Method in brief: as §1

[5] = molecular target: Neu5Ac(a2-3)[Neu5Ac(a2-6)]GalNAc
Method in brief: as §1

Neu5Ac(a2-6)Gal = molecular target: Neu5Ac(a2-6)Gal
Method in brief: as §1

[6] = molecular target: Neu5Ac(a2-6)Gal(b1-3)GlcNAc(b1-3)[Gal(b1-4)GlcNAc(b1-6)]Gal(b1-4)Glc
Method in brief: as §1

Neu5Ac(a2-6)Gal(b1-4)Glc = molecular target: Neu5Ac(a2-6)Gal(b1-4)Glc
Method in brief: as §1

[7] = molecular target: Neu5Ac(a2-6)Gal(b1-4)GlcNAc
Method in brief: as §1

[8] = molecular target: Neu5Ac(a2-6)Gal(b1-4)GlcNAc(b1-2)Man
Method in brief: as §1

[9] = molecular target: Neu5Ac(a2-6)Gal(b1-4)GlcNAc(b1-2)Man(a1-3)Man(b1-4)GlcNAc(b1-4)GlcNAc
Method in brief: as §1

[10] = molecular target: Neu5Ac(a2-6)Gal(b1-4)GlcNAc(b1-2)Man(a1-3)[Gal(b1-4)GlcNAc(b1-2)Man(a1-6)]Man(b1-4)GlcNAc(b1-4)GlcNAc
Method in brief: as §1

[11] = molecular target: Neu5Ac(a2-6)Gal(b1-4)GlcNAc(b1-2)Man(a1-3)[GlcNAc(b1-2)Man(a1-6)]Man(b1-4)GlcNAc(b1-4)GlcNAc
Method in brief: as §1

[12] = molecular target: Neu5Ac(a2-6)Gal(b1-4)GlcNAc(b1-2)Man(a1-3)[GlcNAc(b1-4)][Neu5Ac(a2-6)Gal(b1-4)GlcNAc(b1-2)Man(a1-6)]Man(b1-4)GlcNAc(b1-4)GlcNAc
Method in brief: as §1

[13] = molecular target: Neu5Ac(a2-6)Gal(b1-4)GlcNAc(b1-2)Man(a1-3)[Man(a1-6)]Man(b1-4)GlcNAc(b1-4)GlcNAc
Method in brief: as §1

[14] = molecular target: Neu5Ac(a2-6)Gal(b1-4)GlcNAc(b1-2)Man(a1-3)[Neu5Ac(a2-3)Gal(b1-4)GlcNAc(b1-2)Man(a1-6)]Man(b1-4)GlcNAc(b1-4)GlcNAc
Method in brief: as §1

[15] = molecular target: Neu5Ac(a2-6)Gal(b1-4)GlcNAc(b1-2)Man(a1-3)[Neu5Ac(a2-6)Gal(b1-4)GlcNAc(b1-2)Man(a1-6)]Man(b1-4)GlcNAc(b1-4)GlcNAc
Method in brief: as §1

[16] = molecular target: Neu5Ac(a2-6)Gal(b1-4)GlcNAc(b1-2)Man(a1-3)[Neu5Ac(a2-6)Gal(b1-4)GlcNAc(b1-2)Man(a1-6)]Man(b1-4)GlcNAc(b1-4)[Fuc(a1-6)]GlcNAc
Method in brief: as §1

[17] = molecular target: Neu5Ac(a2-6)Gal(b1-4)GlcNAc(b1-2)Man(a1-6)Man(b1-4)GlcNAc(b1-4)GlcNAc
Method in brief: as §1

[18] = molecular target: Neu5Ac(a2-6)Gal(b1-4)GlcNAc(b1-2)Man(a1-6)[Gal(b1-4)GlcNAc(b1-2)Man(a1-3)]Man(b1-4)GlcNAc(b1-4)GlcNAc
Method in brief: as §1

[19] = molecular target: Neu5Ac(a2-6)Gal(b1-4)GlcNAc(b1-2)Man(a1-6)[GlcNAc(b1-2)Man(a1-3)]Man(b1-4)GlcNAc(b1-4)GlcNAc
Method in brief: as §1

[20] = molecular target: Neu5Ac(a2-6)Gal(b1-4)GlcNAc(b1-2)Man(a1-6)[Man(a1-3)]Man(b1-4)GlcNAc(b1-4)GlcNAc
Method in brief: as §1

[21] = molecular target: Neu5Ac(a2-6)Gal(b1-4)GlcNAc(b1-2)[Neu5Ac(a2-6)Gal(b1-4)GlcNAc(b1-4)]Man(a1-3)[GlcNAc(b1-4)][Neu5Ac(a2-6)Gal(b1-4)GlcNAc(b1-2)[Neu5Ac(a2-6)Gal(b1-4)GlcNAc(b1-6)]Man(a1-6)]Man(b1-4)GlcNAc(b1-4)GlcNAc
Method in brief: as §1

[22] = molecular target: Neu5Ac(a2-6)Gal(b1-4)GlcNAc(b1-2)[Neu5Ac(a2-6)Gal(b1-4)GlcNAc(b1-4)]Man(a1-3)[GlcNAc(b1-4)][Neu5Ac(a2-6)Gal(b1-4)GlcNAc(b1-4)Man(a1-6)]Man(b1-4)GlcNAc(b1-4)GlcNAc
Method in brief: as §1

[23] = molecular target: Neu5Ac(a2-6)Gal(b1-4)GlcNAc(b1-2)[Neu5Ac(a2-6)Gal(b1-4)GlcNAc(b1-6)]Man(a1-6)[Neu5Ac(a2-6)Gal(b1-4)GlcNAc(b1-2)Man(a1-3)][GlcNAc(b1-4)]Man(b1-4)GlcNAc(b1-4)GlcNAc
Method in brief: as §1

[24] = molecular target: Neu5Ac(a2-6)Gal(b1-4)GlcNAc(b1-3)Gal(b1-3)GlcNAc
Method in brief: as §1

[25] = molecular target: Neu5Ac(a2-6)Gal(b1-4)GlcNAc(b1-3)Gal(b1-4)GlcNAc
Method in brief: as §1

[26] = molecular target: Neu5Ac(a2-6)Gal(b1-4)GlcNAc(b1-3)Gal(b1-4)GlcNAc(b1-2)Man(a1-3)[Neu5Ac(a2-6)Gal(b1-4)GlcNAc(b1-3)Gal(b1-4)GlcNAc(b1-2)Man(a1-6)]GalNAc
Method in brief: as §1

[27] = molecular target: Neu5Ac(a2-6)Gal(b1-4)GlcNAc(b1-3)Gal(b1-4)GlcNAc(b1-3)Gal(b1-4)GlcNAc
Method in brief: as §1

[28] = molecular target: Neu5Ac(a2-6)Gal(b1-4)GlcNAc(b1-3)Gal(b1-4)GlcNAc(b1-3)Gal(b1-4)GlcNAc(b1-2)Man(a1-3)[Neu5Ac(a2-6)Gal(b1-4)GlcNAc(b1-3)Gal(b1-4)GlcNAc(b1-3)Gal(b1-4)GlcNAc(b1-2)Man(a1-6)]GalNAc
Method in brief: as §1

[29] = molecular target: Neu5Ac(a2-6)Gal(b1-4)GlcNAc(b1-3)Gal(b1-4)GlcNAc(b1-3)GalNAc
Method in brief: as §1

[30] = molecular target: Neu5Ac(a2-6)Gal(b1-4)GlcNAc(b1-3)Gal(b1-4)GlcNAc(b1-3)[Neu5Ac(a2-6)Gal(b1-4)GlcNAc(b1-3)Gal(b1-4)GlcNAc(b1-6)]GalNAc
Method in brief: as §1

[31] = molecular target: Neu5Ac(a2-6)Gal(b1-4)GlcNAc(b1-3)Gal(b1-4)GlcNAc(b1-6)[Gal(b1-3)]GalNAc
Method in brief: as §1

[32] = molecular target: Neu5Ac(a2-6)Gal(b1-4)GlcNAc(b1-3)Gal(b1-4)[Fuc(a1-3)]GlcNAc(b1-3)Gal(b1-4)[Fuc(a1-3)]GlcNAc
Method in brief: as §1

[33] = molecular target: Neu5Ac(a2-6)Gal(b1-4)GlcNAc(b1-3)GalNAc
Method in brief: as §1

[34] = molecular target: Neu5Ac(a2-6)Gal(b1-4)GlcNAc(b1-3)[Neu5Ac(a2-6)Gal(b1-4)GlcNAc(b1-6)]GalNAc
Method in brief: as §1

[35] = molecular target: Neu5Ac(a2-6)Gal(b1-4)GlcNAc(b1-6)GalNAc
Method in brief: as §1

[36] = molecular target: Neu5Ac(a2-6)Gal(b1-4)GlcNAc(b1-6)[Gal(b1-3)GlcNAc(b1-3)]Gal(b1-4)Glc
Method in brief: as §1

[37] = molecular target: Neu5Ac(a2-6)Gal(b1-4)GlcNAc(b1-6)[Gal(b1-3)]GalNAc
Method in brief: as §1

[38] = molecular target: Neu5Ac(a2-6)Gal(b1-4)GlcNAc6S
Method in brief: as §1

Neu5Ac(a2-6)GalNAc = molecular target: Neu5Ac(a2-6)GalNAc
Method in brief: as §1

[39] = molecular target: Neu5Ac(a2-6)GalNAc(b1-4)GlcNAc
Method in brief: as §1

[40] = molecular target: Neu5Ac(a2-6)GalNAc(b1-4)GlcNAc6S
Method in brief: as §1

[41] = molecular target: Neu5Ac(a2-6)GlcNAc(b1-4)GlcNAc
Method in brief: as §1

B1: Clec18A (Homo sapiens) (protein)
chain: PFHTCDLRIDGDCFMVSSEADTYYRARMKCQRKGGVLAQIKRQKVQDILAFYLGRLETTNEVIDSDFETRNFWIGLTYKTAKDSFRWATGEHQAFTSFAFGQPDNHGFGNCVELQASAAFNWNDQRCKTRNRYICQ
glycan array binding signal (z-score) (Neu5Ac(a2-3)GalNAc): -0.792 | glycan array binding signal (z-score) [1]: -0.815 | glycan array binding signal (z-score) [2]: 1.48 | glycan array binding signal (z-score) [3]: 0.247 | glycan array binding signal (z-score) [4]: 0.01 | glycan array binding signal (z-score) [5]: -0.878 | glycan array binding signal (z-score) (Neu5Ac(a2-6)Gal): -0.402 | glycan array binding signal (z-score) [6]: 1.05 | glycan array binding signal (z-score) (Neu5Ac(a2-6)Gal(b1-4)Glc): -0.205 | glycan array binding signal (z-score) [7]: -0.101 | glycan array binding signal (z-score) [8]: -0.605 | glycan array binding signal (z-score) [9]: 1.46 | glycan array binding signal (z-score) [10]: 0.345 | glycan array binding signal (z-score) [11]: 0.426 | glycan array binding signal (z-score) [12]: 1.43 | glycan array binding signal (z-score) [13]: -0.162 | glycan array binding signal (z-score) [14]: -0.737 | glycan array binding signal (z-score) [15]: 0.107 | glycan array binding signal (z-score) [16]: 2.29 | glycan array binding signal (z-score) [17]: 2.75 | glycan array binding signal (z-score) [18]: 0.457 | glycan array binding signal (z-score) [19]: 1.31 | glycan array binding signal (z-score) [20]: -0.882 | glycan array binding signal (z-score) [21]: 0.198 | glycan array binding signal (z-score) [22]: 1.17 | glycan array binding signal (z-score) [23]: 0.237 | glycan array binding signal (z-score) [24]: -0.391 | glycan array binding signal (z-score) [25]: 1.16 | glycan array binding signal (z-score) [26]: -0.045 | glycan array binding signal (z-score) [27]: -0.78 | glycan array binding signal (z-score) [28]: -0.255 | glycan array binding signal (z-score) [29]: -0.357 | glycan array binding signal (z-score) [30]: -0.516 | glycan array binding signal (z-score) [31]: 0.884 | glycan array binding signal (z-score) [32]: 1.62 | glycan array binding signal (z-score) [33]: -0.582 | glycan array binding signal (z-score) [34]: 3.01 | glycan array binding signal (z-score) [35]: 0.032 | glycan array binding signal (z-score) [36]: 1.12 | glycan array binding signal (z-score) [37]: 1.17 | glycan array binding signal (z-score) [38]: -0.574 | glycan array binding signal (z-score) (Neu5Ac(a2-6)GalNAc): -0.64 | glycan array binding signal (z-score) [39]: -0.176 | glycan array binding signal (z-score) [40]: -0.206 | glycan array binding signal (z-score) [41]: 0.349

From the supplement of paper PMC8728848
